Our source for the cell number change and AC50 values is PubChem BioAssay AID2685 (National Center for Advancing Translational Sciences (NCATS), 2010).

The nature of the assay: qHTS Assay for Lipid Storage Modulators in Drosophila S3 Cells.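 On cell number change: cells counted by Cell Tracker Red CMTPX staining in the red channel.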 The note with it: BODIPY lipid droplet fluorescence, 18-24 h; for cell number change: measured here: cell count max response, cells fed with added oleic acid. A digest of the protocol:
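Drosophila S3 cells loaded with oleic acid (400 uM, as added) and compounds at several concentrations; lipid droplets imaged by 488-nm laser-scanning cytometry, 500–530 nm intensity and object ratio to cell channel. Percent activity normalized to 20 uM Triacsin C.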
For orientation: In qHTS, concentration-response curves come from the screen itself.

Where [1] appears, read: measured here: lipid fluorescence (Fed channel) AC50, cells fed with added oleic acid.
The mark [2] stands for this setting: measured here: cell number channel AC50, cells fed with added oleic acid.

The other results are listed elsewhere or left out. These are further read-outs of the screen, such as a control signal, another cell line or another target. No call is given for them. Compounds called inactive in the main read-out are mostly missing here. The note in brackets gives the kind of curve behind each potency; many fits are weak.

A word on the AC50: it is the midpoint of the concentration-response curve, whichever way the signal moves. A higher AC50 goes with activity only at high concentration. Consider `Nn1c(SCC(=O)Nc2ccc3c(c2)OCCO3)nnc(CCC(=O)O)c1=O`, for which the cell number change is -8.78%. For the same compound, the half-maximal activity concentration (AC50) under setting [1] is 0.731 µM [rising, single point]. With `CCOc1ccc(N(CC(=O)NCc2ccccc2C)S(C)(=O)=O)cc1`, the cell number change is -3.41%. Moreover, under setting [1], the AC50 is 7.31 µM [rising, partial curve].

For the compound `C/C(=N\OC(=O)c1ccc(Cl)c(Cl)c1)c1sc(C)nc1C`, the cell number change is -31.7%. For the same compound, under setting [1], the AC50 was 29.1 µM [falling, single point]. Turning to `c1ccc(C2=Nc3c(ccc4ccccc34)C(c3ccncc3)=NN2)cc1`, the cell number change was -27.3%. Besides, the AC50 under setting [1] is 6.51 µM [falling, single point]. Turning to `O=C(NCCCn1ccnc1)c1ccc(Cl)c(S(=O)(=O)N2CCOCC2)c1`, the cell number change was -14.6%. Consider `Cc1cc(C(C)(C)C)c(O)c(C(C)(C)C)c1`, for which the cell number change was -11.4%. The concentration at half-maximal activity (AC50) under setting [1] is 3.26 µM [falling, partial curve]. In the case of `O=C(Nc1ccc(N2CCOCC2)cc1)c1cccc(-n2cnnc2)c1`, the cell number change was 11.9%. Moreover, the concentration at half-maximal activity (AC50) under setting [1] is 0.58 µM [falling, single point].

As for `C=CCNc1nc(-c2ccc(O)c(C(N)=O)c2)cs1`, the cell number change came to 12.9%. The AC50 under setting [1] was 0.00461 µM [falling, full curve, poor fit]. Regarding `O=[N+]([O-])c1ncn(Cc2c(Cl)cccc2Cl)n1`, the cell number change was 7.7%. For the same compound, the concentration at half-maximal activity (AC50) under setting [1] is 1.64 µM [falling, partial curve, poor fit]. In the case of `Cc1ccc(S(=O)(=O)Nc2ccc(S(=O)(=O)Nc3cc(C)nc(C)n3)cc2)cc1`, the cell number change was -42.3%. For the same compound, the AC50 under setting [2] was 4.61 µM [falling, full curve]. Besides, the AC50 under setting [1] was 4.11 µM [falling, full curve].

Regarding `Cc1cc(Nc2ccccc2)n(-c2cccc(Cl)c2)n1`, under setting [2], the AC50 is 1.16 µM [rising, partial curve]. `COc1ccc(OCCCN2CCCC(C)C2)cc1` (configuration not stated): the cell number change is -90.6%. Further, the AC50 under setting [2] was 29.1 µM [falling, single point]. The AC50 under setting [1] is 18.4 µM [falling, single point]. Regarding `Cn1nnc2cc(NC(=O)Nc3cccc(Cl)c3)ccc21`, the half-maximal activity concentration (AC50) under setting [1] is 20.6 µM [falling, single point]. Consider `CCN(CC)S(=O)(=O)c1ccc(N(C)Cc2cccc(OC)c2OC)nc1`, for which the cell number change is 8.53%.

`CC1=NN(c2ccccc2)C(=O)/C1=C\c1cn(-c2ccccc2)nc1C`: the cell number change was -1.76%. Besides, under setting [2], the AC50 is 6.51 µM [falling, single point]. Moreover, the concentration at half-maximal activity (AC50) under setting [1] was 0.291 µM [falling, partial curve, poor fit]. Consider `Cc1ccc(CCNC(=O)C2CCC(CNc3c(N4CCC(C)CC4)c(=O)c3=O)CC2)cc1` (configuration not stated), for which the cell number change was -14.7%. Besides, the concentration at half-maximal activity (AC50) under setting [1] was 29.1 µM [rising, single point]. For `Cc1cc(C(=O)CCl)c(C)n1-c1cccc(S(=O)(=O)N2CCOCC2)c1`, the cell number change was -0.196%. The AC50 under setting [2] is 0.58 µM [falling, single point]. For the compound `CC1CCCCC12NC(=O)N(CC(=O)NC(=O)Nc1ccc3c(c1)OCCO3)C2=O` (configuration not stated), the cell number change is 49.4%. Besides, the concentration at half-maximal activity (AC50) under setting [2] was 5.17 µM [rising, single point].

As to `CC(OC(=O)c1cnc(Cl)c(Cl)c1)C(=O)NCc1ccccc1` (configuration not stated), the cell number change amounted to 2.92%. Further, the AC50 under setting [1] is 13 µM [rising, partial curve, poor fit]. Consider `C/C(NC(=O)c1ccccc1F)=C1\C(=O)C[C@@H]2[C@H]1C2(C)C`, for which the cell number change is -18.4%. On the same count and under the same terms, the same measure for `O=C(O)Cn1c(=O)cnc2ccccc21`: -11.9%. As to `Cc1onc(-c2ccccc2Cl)c1C(=O)Nc1nnc(-c2ccc(Br)cc2)s1`, the cell number change is -12.7%. Besides, the AC50 under setting [1] is 29.1 µM [rising, single point]. Turning to `COc1cccc(CNC(=O)COC(=O)c2cccc(S(=O)(=O)N3CCCC3)c2)c1`, the cell number change was -3.1%.

`CCCCC(=O)Oc1c(S(=O)(=O)c2ccc(C)cc2)c(C)nn1C(C)(C)C`: the cell number change was -24.4%. Moreover, under setting [1], the concentration at half-maximal activity (AC50) is 20.6 µM [falling, single point]. In the case of `COCCNCC(=O)Nc1nc(C)cs1`, the cell number change is 60.9%. Further, under setting [2], the AC50 is 29.1 µM [rising, single point].

Regarding `Nc1c(N(CCC2=CCCCC2)C(=O)COc2ccc(F)cc2)c(=O)[nH]c(=O)n1Cc1ccccc1`, the cell number change is -66.3%. The AC50 under setting [2] was 7.31 µM [falling, partial curve]. Moreover, under setting [1], the half-maximal activity concentration (AC50) is 3.66 µM [falling, single point]. For the compound `COc1ccc(CNc2cccc3[nH]c(C(F)(F)F)nc23)cc1`, the cell number change is -41.7%. Moreover, the half-maximal activity concentration (AC50) under setting [2] is 25.9 µM [falling, single point]. The concentration at half-maximal activity (AC50) under setting [1] is 14.6 µM [falling, partial curve]. On to `COc1ccc(OC)c2sc(NC(=O)CCSc3ccccc3)nc12`, for which the cell number change was -1.89%. In addition, the concentration at half-maximal activity (AC50) under setting [1] was 0.146 µM [falling, full curve, poor fit]. With `O=C(COc1ccccc1Br)NC(=O)NC1CCCC1`, the cell number change worked out at 38.2%. Besides, under setting [2], the AC50 is 18.4 µM [rising, single point].

Take `CC(=O)N(C(C)=O)c1nc(-c2ccccc2)cn1/N=C/c1cccc([N+](=O)[O-])c1`: the cell number change was -40.6%. Also, under setting [2], the concentration at half-maximal activity (AC50) is 2.06 µM [falling, partial curve, poor fit]. For the same compound, the AC50 under setting [1] is 0.92 µM [falling, partial curve].

Take `COc1ccccc1/C=C/C(=O)N1CCN(S(=O)(=O)c2cc(C)ccc2C)CC1`: the cell number change is 21%. Besides, under setting [1], the half-maximal activity concentration (AC50) was 0.058 µM [rising, full curve, poor fit]. Take `COc1ccccc1N1CCN(C(=O)C2CCN(C(=O)c3ccccc3Cl)CC2)CC1`: the concentration at half-maximal activity (AC50) under setting [1] is 6.51 µM [rising, partial curve, poor fit]. On to `COc1cccc(OCCCOc2ccccc2C(C)C)c1`, for which the cell number change was -14.6%. In addition, the AC50 under setting [1] is 6.51 µM [rising, single point]. `COC(=O)c1cc(Br)c(=O)n(CCN(C(C)C)C(C)C)c1`: the cell number change amounted to 12.6%. Besides, the half-maximal activity concentration (AC50) under setting [2] is 0.082 µM [rising, full curve]. For the same compound, the concentration at half-maximal activity (AC50) under setting [1] is 29.1 µM [falling, single point]. In the case of `Nc1ccc(C(=O)N/N=C/c2cn(Cc3cccc(F)c3)c3ccccc23)cc1`, the cell number change was -49%. Besides, the AC50 under setting [1] is 29.1 µM [falling, single point].

As to `Cc1ccc(C(=O)NCCOc2cccc3cccnc23)cc1Cl`, the cell number change worked out at 5.39%. For the same compound, under setting [1], the AC50 is 1.3 µM [rising, partial curve].

Consider `CCCC1=Nc2cc(C(=O)NCCCN3CCN(C)CC3)ccc2Sc2ccccc21`, for which the cell number change is -0.763%. Under setting [1], the concentration at half-maximal activity (AC50) is 0.103 µM [rising, full curve, poor fit].

With `CCOC(=O)C1CCCN(C(=O)c2cc(-c3ccccc3)on2)C1` (configuration not stated), the cell number change was 7.98%. The AC50 under setting [1] was 2.59 µM [falling, full curve]. As to `CCc1ccc2c(c1)C(=O)c1ccccc1C2=O`, the cell number change came out at 15%. Also, the AC50 under setting [1] was 4.61 µM [rising, single point]. As for `CCOc1ccc(OCC)c(NC(=O)CN(C)S(=O)(=O)c2cnc[nH]2)c1`, the cell number change was -4.31%. The AC50 under setting [2] is 6.51 µM [rising, partial curve, poor fit].

As to `CCOC(=O)Cc1csc(NC(=O)/C=C/c2cccc(Br)c2)n1`, the cell number change was -14.2%.

Take `O=C(Nc1cccc(Cl)c1)c1cc(S(=O)(=O)NCCc2ccc(Cl)cc2)ccc1F`: the cell number change was -28.9%. For the same compound, the AC50 under setting [1] was 29.1 µM [falling, single point]. In the case of `CCOc1ccc(NC(=S)N(CCc2c(C)[nH]c3ccccc23)Cc2ccco2)cc1`, the cell number change was -6.26%. Under setting [1], the AC50 is 0.517 µM [rising, partial curve, poor fit]. In the case of `CCOC(=O)C(NCc1ccccc1OC)(NC(C)=O)C(F)(F)F` (configuration not stated), the cell number change was -170%. The concentration at half-maximal activity (AC50) under setting [2] is 29.1 µM [falling, single point]. As to `O=[N+]([O-])c1ccc2[nH]c3c(c2c1)CCCC3O` (configuration not stated), the cell number change is 28%. For the compound `O=C(O)C1CCCN(S(=O)(=O)c2ccc3c(c2)OCCO3)C1` (configuration not stated), the cell number change amounted to 30.6%. Besides, the half-maximal activity concentration (AC50) under setting [2] was 0.0651 µM [rising, full curve, poor fit]. The AC50 under setting [1] is 0.231 µM [rising, full curve, poor fit]. Consider `CS(=O)(=O)c1ccc(Cl)c(NC(=O)Cc2c(F)cccc2Cl)c1`, for which the cell number change is -42.6%. Moreover, the AC50 under setting [1] was 5.17 µM [falling, partial curve]. As for `CCOC(=O)c1[nH]c(C)c(/C(O)=C2\C(=O)C(=O)N(CCN(C)C)C2c2cccc(OC)c2OC)c1C` (configuration not stated), the cell number change is -27.1%. Turning to `CN(C)S(=O)(=O)c1cccc(NC(=O)CCCc2nc3ccccc3c(=O)[nH]2)c1`, the cell number change was -3.85%. Further, under setting [1], the AC50 was 0.58 µM [falling, single point]. As for `CC(/C=N/NC(=S)Nc1cccc(S(=O)(=O)N(C)C)c1)c1ccccc1` (configuration not stated), the cell number change came out at 133%. The half-maximal activity concentration (AC50) under setting [2] was 29.1 µM [rising, single point]. Turning to `CC(=O)Nc1ccc(S(=O)(=O)Oc2ccc(Br)cc2C(=S)N2CCOCC2)cc1`, the cell number change is -39.3%. Also, the AC50 under setting [2] is 1.84 µM [falling, full curve]. In addition, the AC50 under setting [1] is 0.164 µM [falling, full curve]. For `O=C1c2cccc3c([N+](=O)[O-])ccc(c23)C(=O)N1CC1CCCO1` (configuration not stated), the cell number change is -67.4%. Further, the AC50 under setting [1] is 29.1 µM [falling, single point]. Regarding `CCC(=O)OC1(C#CCOc2ccc(OC)cc2)CCN(C)CC1`, the cell number change came out at 1.34%. Regarding `O=C(Nc1ccc(NC(=O)c2ccc(S(=O)(=O)c3ccccc3)cc2)cc1)c1ccccc1`, the cell number change is -83.6%. Under setting [2], the half-maximal activity concentration (AC50) was 23.1 µM [falling, partial curve, poor fit]. In addition, the half-maximal activity concentration (AC50) under setting [1] is 18.4 µM [falling, partial curve].

As for `C=CCOc1ccc(/C=C/C(=O)N2CCCN(S(=O)(=O)c3c(C)noc3C)CC2)cc1`, the cell number change was found to be 75.5%. For the same compound, the concentration at half-maximal activity (AC50) under setting [2] is 20.6 µM [rising, single point].

On to `COc1ccc(/C=N\NC(=O)c2cc(OCC(F)(F)F)ccc2OCC(F)(F)F)cc1`, for which the cell number change was -9.4%. Also, under setting [1], the AC50 was 0.58 µM [rising, single point]. Take `COc1ccc(N2C(=O)CC(Nc3ccc(F)cc3)C2=O)c([N+](=O)[O-])c1` (configuration not stated): the cell number change amounted to 21.9%. Moreover, under setting [1], the AC50 was 7.94 µM [rising, partial curve].

Regarding `CCCCN(C(=O)c1cccc(S(=O)(=O)N(C)c2ccc(C)cc2)c1)c1c(N)n(CCCC)c(=O)[nH]c1=O`, the cell number change is -25.4%. Further, the concentration at half-maximal activity (AC50) under setting [2] is 2.31 µM [falling, full curve, poor fit].

For `CCOCCCNC(=O)C1CC(=O)N(C2CCCC2)C1` (configuration not stated), the cell number change is -34.9%. The half-maximal activity concentration (AC50) under setting [2] was 0.731 µM [falling, full curve, poor fit]. Moreover, the half-maximal activity concentration (AC50) under setting [1] is 3.66 µM [falling, full curve].
